Data as given in PubChem BioAssay AID686943 (Drosophila RNAi Screening Center, 2013)

Test: 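Fly genes whose loss alters ERK activation after insulin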 (primary screen)
Cells: Drosophila S2R+ haemocyte-like cells expressing YFP-tagged ERK (Rolled)
Knock-down reagent: long dsRNA against Drosophila genes
Challenge: insulin stimulation versus unstimulated cells; dose and duration not given
Read-out: 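Antibody staining for doubly phosphorylated ERK divided by ERK-YFP signal, as plate z-scores, in insulin-treated and untreated cells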
Scale: replicate 1, z-score of dpERK with insulin and replicate 2, z-score of dpERK with insulin: higher = more active ERK per ERK-YFP after insulin
The deposit covers about 23,000 reagents; below is a random part of those that have a named target and a result. 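Extra replicates exist only for a retested subset of genes; insulin dose and duration not given; both raised and lowered dpERK matter.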 Names joined by + are all predicted targets of the reagent. Further read-outs or replicates are left out here. Reagent sequences are not shown. Not stated in the record: the amount of reagent, the time to read-out.

target gene | amplicon | replicate 1, z-score of dpERK with insulin | replicate 2, z-score of dpERK with insulin
ND-B15 (GeneID 36640) | DRSC06199 | 0.07 | 0.02
CG10494 (GeneID 37453) | DRSC04072 | 0.07 | 0.8
l(3)04053 (GeneID 46158) | DRSC11640 | 1.19 | 0.43
Indy-2 + CG33934 | DRSC15685 | -0.4 | -1.35
Indy-2 + CG33934 | DRSC15686 | -0.31 | 1.53
CG13760 (GeneID 31237) | DRSC18617 | 0.17 | 0.7
CG9849 (GeneID 37647) | DRSC04573 | 0.74 | 0.55
Ccm3 (GeneID 41876) | DRSC15711 | -1.58 | -0.45
mat (GeneID 38107) | DRSC08376 | -0.42 | 0.37
mat (GeneID 38107) | DRSC22841 | 0.59 | 0.68
CG6171 (GeneID 41872) | DRSC15982 | -0.41 | -0.44
CG9782 (GeneID 32632) | DRSC19145 | 0 | -0.54
CG9782 (GeneID 32632) | DRSC20209 | 1.15 | 0.42
sesB (GeneID 32007) | DRSC20371 | -0.11 | 0.11
CG13295 (GeneID 38692) | DRSC09969 | 0.5 | 0.23
CG31523 (GeneID 326148) | DRSC12009 | 0.32 | -0.48
CG31523 (GeneID 326148) | DRSC12337 | 1.23 | 0.89
qjt (GeneID 39952) | DRSC10060 | -0.15 | 0.43
CG15337 (GeneID 31748) | DRSC18020 | 0.49 | -0.8
CG15337 (GeneID 31748) | DRSC22778 | 1.32 | -1.62
CG9436 (GeneID 35586) | DRSC05005 | 0.35 | 0.32
Lrp4 (GeneID 32552) | DRSC20118 | -0.21 | 0.43
CG8520 (GeneID 36357) | DRSC07206 | 0.07 | -0.21
Rnb (GeneID 43513) | DRSC16325 | -1.07 | -0.28
lncRNA:CR43632 (GeneID 12798265) | DRSC13730 | -0.89 | -1
NimC3 (GeneID 48772) | DRSC03556 | 1.01 | -0.06
NimC3 (GeneID 48772) | DRSC22528 | 0.9 | 0.42
CG17217 (GeneID 34644) | DRSC02592 | 0.24 | 0.32
CG14113 (GeneID 50287) | DRSC10116 | -0.14 | 0.41
CG8925 (GeneID 41963) | DRSC16455 | 0.17 | 0.81
CG8925 (GeneID 41963) | DRSC16456 | 0.74 | 0.21
CG8925 (GeneID 41963) | DRSC16457 | 0.34 | -1.6
PIG-O (GeneID 37118) | DRSC06123 | -0.23 | 0.4
Sox21a (GeneID 39567) | DRSC10819 | -0.69 | 0.12
DIP-zeta (GeneID 34231) | DRSC02203 | -0.11 | 0.13
DIP-zeta (GeneID 34231) | DRSC02204 | 0.3 | -0.2
DIP-zeta (GeneID 34231) | DRSC02205 | 0.16 | -0.21
Tsp42Ea (GeneID 59178) | DRSC04982 | 0.25 | -0.15
Tsp42Ea (GeneID 59178) | DRSC06792 | 1.34 | -0.41
emp (GeneID 37999) | DRSC04019 | -0.21 | -0.05
emp (GeneID 37999) | DRSC04683 | 0.75 | 0.36
CG31787 (GeneID 318941) | DRSC01632 | 0.51 | -0.46
nyo (GeneID 43716) | DRSC15029 | 0.8 | 0
nyo (GeneID 43716) | DRSC15030 | -1.55 | 0.97
CG4806 (GeneID 37948) | DRSC04491 | 0.79 | 0.28
Toll-9 (GeneID 40245) | DRSC11776 | 0.85 | -0.12
CG14074 (GeneID 40051) | DRSC10079 | -1.3 | -0.97
NimC4 (GeneID 34824) | DRSC01945 | 0.06 | 0.32
CG31231 (GeneID 318638) | DRSC13308 | 0.4 | 0.98
zuc (GeneID 34609) | DRSC02160 | 0 | -0.09
Mpi (GeneID 41192) | DRSC16417 | -0.85 | -0.59
CG12171 (GeneID 40690) | DRSC12200 | -0.02 | -0.75
CG14331 (GeneID 42099) | DRSC14810 | 0.28 | -0.26
CG15742 (GeneID 32276) | DRSC19708 | 0.08 | 0.67
ATPsynO (GeneID 41845) | DRSC16780 | 0.62 | -1
Fas2 (GeneID 31364) | DRSC17308 | -1.43 | -0.42
Fas2 (GeneID 31364) | DRSC17309 | -0.13 | 0.15
Fas2 (GeneID 31364) | DRSC18664 | -0.08 | 0.3
